Measured values as given in patent publication US20230399417A1 (Genentech, published 2023).
No constants are given. Whether binding was seen depends on the method and setting. Some entries that bind do so weakly or less than the wild type.

Sequences of proteins named here, by UniProt entry; tags and fusion partners are left off. A change or cut given only in a name is not applied to a line headed by its entry.
UniProt P10749: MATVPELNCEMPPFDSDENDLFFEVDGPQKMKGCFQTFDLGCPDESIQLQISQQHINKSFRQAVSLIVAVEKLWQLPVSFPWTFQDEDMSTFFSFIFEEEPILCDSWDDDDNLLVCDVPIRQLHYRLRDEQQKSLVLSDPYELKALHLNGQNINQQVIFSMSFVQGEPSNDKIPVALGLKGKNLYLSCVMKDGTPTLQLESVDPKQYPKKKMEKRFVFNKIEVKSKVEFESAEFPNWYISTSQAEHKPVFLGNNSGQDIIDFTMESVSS
UniProt P01584: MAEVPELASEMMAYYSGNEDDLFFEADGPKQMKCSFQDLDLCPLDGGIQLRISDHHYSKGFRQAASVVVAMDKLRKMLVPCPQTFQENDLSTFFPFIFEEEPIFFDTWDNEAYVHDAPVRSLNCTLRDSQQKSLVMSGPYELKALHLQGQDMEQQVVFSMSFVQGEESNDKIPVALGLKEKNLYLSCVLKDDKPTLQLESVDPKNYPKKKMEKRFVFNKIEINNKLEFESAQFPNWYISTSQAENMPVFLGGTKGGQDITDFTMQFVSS
UniProt P57764: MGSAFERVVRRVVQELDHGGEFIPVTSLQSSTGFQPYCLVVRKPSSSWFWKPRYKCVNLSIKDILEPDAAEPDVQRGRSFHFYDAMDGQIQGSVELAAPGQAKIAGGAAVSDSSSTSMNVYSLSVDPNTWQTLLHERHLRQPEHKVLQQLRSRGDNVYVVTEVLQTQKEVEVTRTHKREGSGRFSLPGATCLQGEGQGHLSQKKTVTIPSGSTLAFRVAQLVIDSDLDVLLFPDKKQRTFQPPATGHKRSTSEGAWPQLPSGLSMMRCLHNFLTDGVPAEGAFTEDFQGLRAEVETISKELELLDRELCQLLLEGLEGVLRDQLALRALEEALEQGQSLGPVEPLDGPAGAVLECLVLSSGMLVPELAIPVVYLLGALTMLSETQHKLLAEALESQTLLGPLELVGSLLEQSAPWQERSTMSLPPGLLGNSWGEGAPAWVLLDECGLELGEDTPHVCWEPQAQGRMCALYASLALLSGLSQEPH
UniProt Q9D8T2: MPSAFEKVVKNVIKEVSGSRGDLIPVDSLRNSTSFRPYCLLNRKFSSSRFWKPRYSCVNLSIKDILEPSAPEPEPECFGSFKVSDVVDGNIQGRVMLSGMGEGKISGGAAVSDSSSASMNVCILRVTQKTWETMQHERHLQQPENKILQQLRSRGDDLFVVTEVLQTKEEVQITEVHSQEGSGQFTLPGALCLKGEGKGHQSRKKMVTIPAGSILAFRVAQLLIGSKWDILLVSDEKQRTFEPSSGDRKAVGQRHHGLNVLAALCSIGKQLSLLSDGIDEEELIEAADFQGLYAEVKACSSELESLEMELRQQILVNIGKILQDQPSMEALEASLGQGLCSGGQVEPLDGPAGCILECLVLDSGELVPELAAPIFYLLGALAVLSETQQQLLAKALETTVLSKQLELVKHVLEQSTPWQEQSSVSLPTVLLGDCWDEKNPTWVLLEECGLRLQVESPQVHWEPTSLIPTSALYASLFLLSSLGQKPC
UniProt Q14116: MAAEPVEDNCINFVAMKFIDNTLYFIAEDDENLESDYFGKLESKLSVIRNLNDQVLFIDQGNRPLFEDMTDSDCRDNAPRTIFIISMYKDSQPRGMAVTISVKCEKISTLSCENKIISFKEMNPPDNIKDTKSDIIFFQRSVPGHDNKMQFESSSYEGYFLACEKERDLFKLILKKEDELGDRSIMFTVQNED
UniProt P70343: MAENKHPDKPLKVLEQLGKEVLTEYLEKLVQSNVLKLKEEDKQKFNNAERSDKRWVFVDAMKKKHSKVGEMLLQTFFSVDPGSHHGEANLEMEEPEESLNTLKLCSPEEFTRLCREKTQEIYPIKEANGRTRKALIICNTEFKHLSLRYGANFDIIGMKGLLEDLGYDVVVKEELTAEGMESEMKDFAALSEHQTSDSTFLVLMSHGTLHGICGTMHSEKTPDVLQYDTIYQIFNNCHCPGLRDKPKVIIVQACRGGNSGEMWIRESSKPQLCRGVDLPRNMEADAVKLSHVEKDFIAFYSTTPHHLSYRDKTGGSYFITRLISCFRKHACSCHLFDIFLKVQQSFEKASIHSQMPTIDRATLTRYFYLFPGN

Assays:
[1] = target: T1, mIL1β.A peptide (noncanonical cleavage product of mouse IL-1β) (mouse) (UniProt P10749); assay: ELISA, biotinylated peptide on neutravidin plate, IgG (FIG. 3C)
T1 sequence (peptide, biotinylated, looked up): LFFEVD

[2] = target: hIL1β.A peptide (noncanonical cleavage product of human IL-1β) (human) (UniProt P01584); assay: as above
[3] = target: T2, hGsdmd peptide (cleavage product of human GSDMD) (human) (UniProt P57764); assay: as above
T2 sequence (peptide, biotinylated, looked up): HNFLTD

[4] = target: hIL1β.B peptide (canonical cleavage product of human IL-1β) (human) (UniProt P01584); assay: as above
[5] = target: T3, mIL1β.B peptide (canonical cleavage product of mouse IL-1β) (mouse) (UniProt P10749); assay: as above
T3 sequence (peptide, biotinylated, looked up): NLLVCD

[6] = target: T4, mGsdmd peptide (cleavage product of mouse GSDMD) (mouse) (UniProt Q9D8T2); assay: as above
T4 sequence (peptide, biotinylated, looked up): LSLLSD

[7] = target: h/mIL18 peptide (cleavage product of IL-18) (human/mouse (h/mIL18)) (UniProt Q14116); assay: as above
[8] = target: T5, Casp11 peptide (cleavage product of caspase-11) (mouse) (UniProt P70343); assay: ELISA, biotinylated peptide on neutravidin plate, IgG (FIG. 3D)
T5 sequence (peptide, biotinylated, looked up): RNMEAD

binding [1]: binds
binding [2]: binds
binding [3]: binds
binding [4]: binds
binding [5]: binds
binding [6]: binds
binding [7]: binds
binding [8]: binds
B1: CJ11 (antibody, V domains shown)
VH: QSVEESGGGLVTPGTPLTLTCTVSGIDLSRYAMSWVRQAPGKGLEWIGIFGSLGGIFYASWAKGRFTISKTSPTTVDLKITSPTTEDTATYFCARMPYTTDRDFWGPGTLVTVSS
VL: DIVMTQTPSSTSAAVGGTVTITCQASQSVANNNYLKWYQQKRGQPPKQLIYSVSTLASGVPSRFKGSGSGTQFTLTISDLECDDAATYYCSGYFNNNIGAFGGGTKLEIKG
